Measured values as given in ChEMBL document CHEMBL2202962, “The discovery of a novel series of glucokinase activators based on a pyrazolopyrimidine scaffold” (Bioorg Med Chem Lett, 2012).

By UniProt entry, the sequences of proteins in these tests, tags left out. Where a name states a change or a piece, a line headed by the entry shows the natural chain unless it says otherwise.
UniProt Q12809: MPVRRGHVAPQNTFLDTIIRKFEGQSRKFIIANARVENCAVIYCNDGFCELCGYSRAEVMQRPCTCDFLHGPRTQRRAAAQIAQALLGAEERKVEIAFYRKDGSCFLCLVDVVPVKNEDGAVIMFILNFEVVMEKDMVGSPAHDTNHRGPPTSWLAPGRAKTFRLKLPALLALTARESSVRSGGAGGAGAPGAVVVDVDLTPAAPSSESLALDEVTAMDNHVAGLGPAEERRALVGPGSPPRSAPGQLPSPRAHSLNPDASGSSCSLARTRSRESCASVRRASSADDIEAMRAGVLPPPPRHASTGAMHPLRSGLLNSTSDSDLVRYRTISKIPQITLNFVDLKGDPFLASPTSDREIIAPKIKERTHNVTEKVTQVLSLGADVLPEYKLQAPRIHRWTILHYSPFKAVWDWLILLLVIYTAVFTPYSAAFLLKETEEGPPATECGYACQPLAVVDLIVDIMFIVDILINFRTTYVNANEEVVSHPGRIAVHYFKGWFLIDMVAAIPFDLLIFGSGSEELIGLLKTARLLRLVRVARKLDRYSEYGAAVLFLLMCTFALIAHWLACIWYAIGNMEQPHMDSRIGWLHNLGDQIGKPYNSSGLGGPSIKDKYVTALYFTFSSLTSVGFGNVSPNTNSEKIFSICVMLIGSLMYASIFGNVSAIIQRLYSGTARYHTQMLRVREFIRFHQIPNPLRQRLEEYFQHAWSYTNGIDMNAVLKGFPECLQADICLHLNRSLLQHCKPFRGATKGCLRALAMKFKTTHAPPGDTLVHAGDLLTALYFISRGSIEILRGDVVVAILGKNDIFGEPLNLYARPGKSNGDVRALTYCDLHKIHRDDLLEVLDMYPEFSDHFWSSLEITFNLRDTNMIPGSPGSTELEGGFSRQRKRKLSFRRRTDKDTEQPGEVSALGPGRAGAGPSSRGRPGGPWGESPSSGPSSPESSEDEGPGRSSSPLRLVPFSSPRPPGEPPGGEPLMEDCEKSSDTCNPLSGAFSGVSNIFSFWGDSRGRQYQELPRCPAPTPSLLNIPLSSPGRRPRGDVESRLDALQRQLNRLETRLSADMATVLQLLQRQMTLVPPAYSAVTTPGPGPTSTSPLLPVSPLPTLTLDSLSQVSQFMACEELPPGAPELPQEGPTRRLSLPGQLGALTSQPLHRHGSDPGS

Legend:
[1] = molecular target: Voltage-gated inwardly rectifying potassium channel KCNH2 (Homo sapiens, UniProt Q12809)
[2] = Octanol-water partition coefficient, log D of the compound by HPLC analysis

COCC[C@H](Oc1ncnc2c1cnn2-c1ccccc1C(F)(F)F)C(=O)Nc1ccc(C)cn1
IC50 [1]: 26 µM
logD [2]: 4.3

COCCC(Oc1ncnc2c1cnn2-c1ccccc1C(F)(F)F)C(=O)Nc1ccc(C)cn1 (racemic)
logD [2]: 4.4
